# Measured values published in the supplement of paper PMC8728848.
# Some of the results follow.
# B1: Mincle (Bos taurus) (protein)
# chain: MNSSTSPASQTERRCFSFQLFSWAIAGTSILLLSACFITRCVVTYSIFQLCDEKKFQPPGDSMELSCYNDGSGSVKNCCPLKWFHFQSSCYLFSPDTMSWRASLKNCSSMGAHLVVINTQEEQEFLYYTKPRKKEFYIGLTDQVTEGQWQWVDGTPFTKSLSFWDAGEPNNLVIVEDCATIRDSSNPRQNWNDVPCFFNMFRVCEMPERKI
# Legend:
# Experiment in all cases: glycan array binding signal (z-score within array); higher = stronger binding
# Conditions in all cases: glycan notation: IUPAC condensed, linker removed
# [1] = target: GlcNAc(b1-2)[GlcNAc(b1-4)]Man(a1-3)[GlcNAc(b1-4)][GlcNAc(b1-2)[GlcNAc(b1-6)]Man(a1-6)]Man(b1-4)GlcNAc(b1-4)GlcNAc
# Procedure, shortened: (§1)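 Columns mapping to the same glycan were averaged after glycan names were converted to IUPAC-condensed notation. The data come from 3228 arrays in the Consortium for Functional Glycomics database, limited to those with an available protein sequence. Binding is reported as a within-array Z-score averaged across arrays of one protein sequence and across linkers.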
# [2] = target: GlcNAc(b1-2)[GlcNAc(b1-4)]Man(a1-3)[GlcNAc(b1-4)][GlcNAc(b1-2)[GlcNAc(b1-6)]Man(a1-6)]Man(b1-4)GlcNAc(b1-4)[Fuc(a1-6)]GlcNAc
# Procedure, shortened: as §1
# [3] = target: GlcNAc(b1-2)[GlcNAc(b1-6)]Man(a1-6)[GlcNAc(b1-2)Man(a1-3)]Man(b1-4)GlcNAc(b1-4)GlcNAc
# Procedure, shortened: as §1
# [4] = target: GlcNAc(b1-2)[GlcNAc(b1-6)]Man(a1-6)[GlcNAc(b1-2)Man(a1-3)]Man(b1-4)GlcNAc(b1-4)[Fuc(a1-6)]GlcNAc
# Procedure, shortened: as §1
# [5] = target: GlcNAc(b1-2)[GlcNAc(b1-6)]Man(a1-6)[GlcNAc(b1-4)][GlcNAc(b1-2)Man(a1-3)]Man(b1-4)GlcNAc(b1-4)GlcNAc
# Procedure, shortened: as §1
# [6] = target: GlcNAc(b1-3)Fuc
# Procedure, shortened: as §1
# [7] = target: GlcNAc(b1-3)Gal
# Procedure, shortened: as §1
# [8] = target: GlcNAc(b1-3)Gal(b1-3)GalNAc
# Procedure, shortened: as §1
# [9] = target: GlcNAc(b1-3)Gal(b1-4)Glc
# Procedure, shortened: as §1
# [10] = target: GlcNAc(b1-3)Gal(b1-4)GlcNAc
# Procedure, shortened: as §1
# [11] = target: GlcNAc(b1-3)Gal(b1-4)GlcNAc(b1-2)Man(a1-3)[GlcNAc(b1-3)Gal(b1-4)GlcNAc(b1-2)Man(a1-6)]Man(b1-4)GlcNAc(b1-4)GlcNAc
# Procedure, shortened: as §1
# [12] = target: GlcNAc(b1-3)Gal(b1-4)GlcNAc(b1-2)Man(a1-3)[GlcNAc(b1-3)Gal(b1-4)GlcNAc(b1-2)Man(a1-6)]Man(b1-4)GlcNAc(b1-4)[Fuc(a1-6)]GlcNAc
# Procedure, shortened: as §1
# [13] = target: GlcNAc(b1-3)Gal(b1-4)GlcNAc(b1-2)[GlcNAc(b1-3)Gal(b1-4)GlcNAc(b1-6)]Man(a1-6)[GlcNAc(b1-3)Gal(b1-4)GlcNAc(b1-2)Man(a1-3)]Man(b1-4)GlcNAc(b1-4)GlcNAc
# Procedure, shortened: as §1
# [14] = target: GlcNAc(b1-3)Gal(b1-4)GlcNAc(b1-3)Gal(b1-4)GlcNAc
# Procedure, shortened: as §1
# [15] = target: GlcNAc(b1-3)Gal(b1-4)GlcNAc(b1-3)Gal(b1-4)GlcNAc(b1-2)Man(a1-3)[GlcNAc(b1-3)Gal(b1-4)GlcNAc(b1-3)Gal(b1-4)GlcNAc(b1-2)Man(a1-6)]Man(b1-4)GlcNAc(b1-4)GlcNAc
# Procedure, shortened: as §1
# [16] = target: GlcNAc(b1-3)Gal(b1-4)GlcNAc(b1-3)Gal(b1-4)GlcNAc(b1-2)Man(a1-3)[GlcNAc(b1-3)Gal(b1-4)GlcNAc(b1-3)Gal(b1-4)GlcNAc(b1-2)Man(a1-6)]Man(b1-4)GlcNAc(b1-4)[Fuc(a1-6)]GlcNAc
# Procedure, shortened: as §1
# [17] = target: GlcNAc(b1-3)Gal(b1-4)GlcNAc(b1-3)Gal(b1-4)GlcNAc(b1-2)[GlcNAc(b1-3)Gal(b1-4)GlcNAc(b1-3)Gal(b1-4)GlcNAc(b1-6)]Man(a1-6)[GlcNAc(b1-3)Gal(b1-4)GlcNAc(b1-3)Gal(b1-4)GlcNAc(b1-2)Man(a1-3)]Man(b1-4)GlcNAc(b1-4)[Fuc(a1-6)]GlcNAc
# Procedure, shortened: as §1
# [18] = target: GlcNAc(b1-3)Gal(b1-4)GlcNAc(b1-3)Gal(b1-4)GlcNAc(b1-3)Gal(b1-4)GlcNAc(b1-2)Man(a1-3)[GlcNAc(b1-3)Gal(b1-4)GlcNAc(b1-3)Gal(b1-4)GlcNAc(b1-3)Gal(b1-4)GlcNAc(b1-2)Man(a1-6)]Man(b1-4)GlcNAc(b1-4)GlcNAc
# Procedure, shortened: as §1
# [19] = target: GlcNAc(b1-3)Gal(b1-4)GlcNAc(b1-3)Gal(b1-4)GlcNAc(b1-3)Gal(b1-4)GlcNAc(b1-2)Man(a1-3)[GlcNAc(b1-3)Gal(b1-4)GlcNAc(b1-3)Gal(b1-4)GlcNAc(b1-3)Gal(b1-4)GlcNAc(b1-2)Man(a1-6)]Man(b1-4)GlcNAc(b1-4)[Fuc(a1-6)]GlcNAc
# Procedure, shortened: as §1
# [20] = target: GlcNAc(b1-3)Gal(b1-4)GlcNAc(b1-3)Gal(b1-4)GlcNAc(b1-3)Gal(b1-4)GlcNAc(b1-2)[GlcNAc(b1-3)Gal(b1-4)GlcNAc(b1-3)Gal(b1-4)GlcNAc(b1-3)Gal(b1-4)GlcNAc(b1-6)]Man(a1-6)[GlcNAc(b1-3)Gal(b1-4)GlcNAc(b1-3)Gal(b1-4)GlcNAc(b1-3)Gal(b1-4)GlcNAc(b1-2)Man(a1-3)]Man(b1-4)GlcNAc(b1-4)[Fuc(a1-6)]GlcNAc
# Procedure, shortened: as §1
# [21] = target: GlcNAc(b1-3)Gal(b1-4)GlcNAc(b1-3)Gal(b1-4)GlcNAc(b1-3)Gal(b1-4)GlcNAc(b1-3)Gal(b1-4)GlcNAc(b1-2)Man(a1-3)[GlcNAc(b1-3)Gal(b1-4)GlcNAc(b1-3)Gal(b1-4)GlcNAc(b1-3)Gal(b1-4)GlcNAc(b1-3)Gal(b1-4)GlcNAc(b1-2)Man(a1-6)]Man(b1-4)GlcNAc(b1-4)GlcNAc
# Procedure, shortened: as §1
# [22] = target: GlcNAc(b1-3)Gal(b1-4)GlcNAc(b1-3)Gal(b1-4)GlcNAc(b1-3)Gal(b1-4)GlcNAc(b1-3)Gal(b1-4)GlcNAc(b1-2)Man(a1-3)[GlcNAc(b1-3)Gal(b1-4)GlcNAc(b1-3)Gal(b1-4)GlcNAc(b1-3)Gal(b1-4)GlcNAc(b1-3)Gal(b1-4)GlcNAc(b1-2)Man(a1-6)]Man(b1-4)GlcNAc(b1-4)[Fuc(a1-6)]GlcNAc
# Procedure, shortened: as §1
# [23] = target: GlcNAc(b1-3)Gal(b1-4)GlcNAc(b1-3)Gal(b1-4)GlcNAc(b1-3)Gal(b1-4)GlcNAc(b1-3)Gal(b1-4)GlcNAc(b1-2)[GlcNAc(b1-3)Gal(b1-4)GlcNAc(b1-3)Gal(b1-4)GlcNAc(b1-3)Gal(b1-4)GlcNAc(b1-3)Gal(b1-4)GlcNAc(b1-6)]Man(a1-6)[GlcNAc(b1-3)Gal(b1-4)GlcNAc(b1-3)Gal(b1-4)GlcNAc(b1-3)Gal(b1-4)GlcNAc(b1-3)Gal(b1-4)GlcNAc(b1-2)Man(a1-3)]Man(b1-4)GlcNAc(b1-4)[Fuc(a1-6)]GlcNAc
# Procedure, shortened: as §1
binder,measurement,setting,value
B1,glycan array binding signal (z-score),[1],-0.222
same,glycan array binding signal (z-score),[2],0.136
same,glycan array binding signal (z-score),[3],-0.042
same,glycan array binding signal (z-score),[4],0.676
same,glycan array binding signal (z-score),[5],-0.45
same,glycan array binding signal (z-score),[6],0.278
same,glycan array binding signal (z-score),[7],-0.095
same,glycan array binding signal (z-score),[8],-0.293
same,glycan array binding signal (z-score),[9],0.603
same,glycan array binding signal (z-score),[10],-0.12
same,glycan array binding signal (z-score),[11],-0.129
same,glycan array binding signal (z-score),[12],0.491
same,glycan array binding signal (z-score),[13],1.42
same,glycan array binding signal (z-score),[14],-0.57
same,glycan array binding signal (z-score),[15],1.52
same,glycan array binding signal (z-score),[16],0.26
same,glycan array binding signal (z-score),[17],0.11
same,glycan array binding signal (z-score),[18],0.166
same,glycan array binding signal (z-score),[19],-0.142
same,glycan array binding signal (z-score),[20],1.03
same,glycan array binding signal (z-score),[21],0.079
same,glycan array binding signal (z-score),[22],-0.454
same,glycan array binding signal (z-score),[23],1.23

# 2 entries from above, set out differently.
binder | measurement | setting | value
B1 | glycan array binding signal (z-score) | [3] | -0.042
same | glycan array binding signal (z-score) | [11] | -0.129
